Data as given in PubChem BioAssay AID1224830 (NIAID, 2016)
Purpose: 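Genes whose knock-down alters the TNF-alpha reporter response to LPS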 (primary screen). System: human THP-1 monocytic leukaemia cells, TNF dual-luciferase reporter clone, PMA-differentiated to macrophage-like cells. Reagents: siRNA pool against human genes, 50 nM. Duration: LPS for 4 h, given about 3 days after siRNA transfection. Treatment: bacterial LPS (TLR4 ligand), 10 ng/ml. Read-out: 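TNF firefly reporter luminescence divided by renilla, normalised to the plate median, then turned into a robust z-score for each replicate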. Direction: TNF reporter robust z-score: higher = stronger TNF reporter response to LPS. Rule for the call: 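Each well counts as active if its z-score is over 2.8 or under -1.5; controls are left without a call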.
Shown is an unselected part of about 18,000 reagents tested. About 2,900 of them (16%) were called active. 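Calls are made per well; low scores hint the gene aids the LPS response, high scores that it dampens it.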 Repeated entries: four replicate wells of each siRNA pool.

gene,TNF reporter robust z-score,outcome
ASPM (assembly factor for spindle microtubules),-0.76,inactive
ASPM (assembly factor for spindle microtubules),-0.1,inactive
ASPM (assembly factor for spindle microtubules),0.35,inactive
ASPM (assembly factor for spindle microtubules),-0.63,inactive
ARVCF (ARVCF delta catenin family member),0.61,inactive
ARVCF (ARVCF delta catenin family member),-1.65,active
ARVCF (ARVCF delta catenin family member),-0.41,inactive
ARVCF (ARVCF delta catenin family member),0.44,inactive
HAUS4 (HAUS augmin like complex subunit 4),0.25,inactive
HAUS4 (HAUS augmin like complex subunit 4),1.77,inactive
HAUS4 (HAUS augmin like complex subunit 4),0.41,inactive
HAUS4 (HAUS augmin like complex subunit 4),0.56,inactive
TRIM39 (tripartite motif containing 39),-0.42,inactive
TRIM39 (tripartite motif containing 39),-1.9,active
TRIM39 (tripartite motif containing 39),-0.77,inactive
TRIM39 (tripartite motif containing 39),-0.6,inactive
PDGFB (platelet derived growth factor subunit B),-0.7,inactive
PDGFB (platelet derived growth factor subunit B),-0.46,inactive
PDGFB (platelet derived growth factor subunit B),-0.58,inactive
PDGFB (platelet derived growth factor subunit B),-0.66,inactive
RERE (arginine-glutamic acid dipeptide repeats),-2.16,active
RERE (arginine-glutamic acid dipeptide repeats),-1.96,active
RERE (arginine-glutamic acid dipeptide repeats),-1.83,active
RERE (arginine-glutamic acid dipeptide repeats),-1.43,inactive

Additional results follow.
gene,TNF reporter robust z-score,outcome
CAPZA3 (capping actin protein of muscle Z-line subunit alpha 3),-0.17,inactive
CAPZA3 (capping actin protein of muscle Z-line subunit alpha 3),-0.34,inactive
CAPZA3 (capping actin protein of muscle Z-line subunit alpha 3),0.02,inactive
CAPZA3 (capping actin protein of muscle Z-line subunit alpha 3),0.31,inactive
CXADR (CXADR cell adhesion molecule),-0.15,inactive
CXADR (CXADR cell adhesion molecule),0.86,inactive
CXADR (CXADR cell adhesion molecule),0.47,inactive
CXADR (CXADR cell adhesion molecule),0.62,inactive
PRR18 (proline rich 18),-1.43,inactive
PRR18 (proline rich 18),-0.45,inactive
PRR18 (proline rich 18),-1.32,inactive
PRR18 (proline rich 18),-1.46,inactive
EFCAB5 (EF-hand calcium binding domain 5),-0.7,inactive
EFCAB5 (EF-hand calcium binding domain 5),0,inactive
EFCAB5 (EF-hand calcium binding domain 5),-0.46,inactive
EFCAB5 (EF-hand calcium binding domain 5),-0.3,inactive
GALR2 (galanin receptor 2),-0.3,inactive
GALR2 (galanin receptor 2),-0.17,inactive
GALR2 (galanin receptor 2),-0.54,inactive
GALR2 (galanin receptor 2),0.04,inactive
"SETD2 (SET domain containing 2, histone lysine methyltransferase)",-0.43,inactive
"SETD2 (SET domain containing 2, histone lysine methyltransferase)",-0.26,inactive
"SETD2 (SET domain containing 2, histone lysine methyltransferase)",0.22,inactive
"SETD2 (SET domain containing 2, histone lysine methyltransferase)",0.78,inactive
